From patent US20240199755A1, “ANTAGONISTS AND AGONISTS OF THE TRANSFERRIN RECEPTOR-2 FOR USE IN THE TREATMENT OF DISEASES OF THE BONE” (Kymab Limited, priority 2018, published 2024)
These are yes or no findings as the source states them, for the method shown. Binding can be weak; no strength is given. Where a sequence is shown, tags or fusion partners need not be part of it.

Columns and labels:
BMP-6 [1] = test: SPR (Biacore T100), Tfr2-ECD immobilised, BMP 50 nM as analyte, 37 °C
BMP-7 [2] = test: as above
BMP-2 [3] = test: as above
BMP-4 [4] = test: as above
BMP-2 [5] = test: SPR at high salt (500 mM NaCl in the running buffer), BMP-2 immobilised and Tfr2-ECD as analyte according to the legend; concentration not printed [panel c]
BMP-4 [6] = test: SPR, BMP-4 immobilised, Tfr2-ECD as analyte
BMP-6 [7] = test: SPR at high salt (500 mM NaCl in the running buffer), BMP-6 immobilised and Tfr2-ECD as analyte according to the legend; concentration not printed [panel c]
BMP-6 [8] = test: SPR, Tfr2-ECD immobilised, BMP ligands 50 nM as analytes (FIG. 15a)
BMP-7 [9] = test: as above
BMP-2 [10] = test: as above
BMP-4 [11] = test: as above
BMP-4 [12] = test: SPR steady state analysis, BMP-4 immobilised, Tfr2-ECD as analyte [panel e]
BMP-6 [13] = test: SPR, high salt running buffer (500 mM NaCl)
BMP-2 [14] = test: SPR, high salt running buffer (500 mM NaCl)
BMP-4 [15] = test: SPR, high salt running buffer (500 mM NaCl)
BMP-6 [16] = test: SPR, Tfr2-ECD immobilised, BMP as analyte
BMP-7 [17] = test: SPR, Tfr2-ECD immobilised, BMP as analyte
BMP-2 [18] = test: SPR, Tfr2-ECD immobilised, BMP as analyte
BMP-4 [19] = test: SPR, Tfr2-ECD immobilised, BMP as analyte
BMP-4 [20] = test: SPR at high salt (500 mM NaCl in the running buffer), BMP-4 immobilised and Tfr2-ECD as analyte according to the legend; concentration not printed [panel c]
BMP-2 [21] = test: SPR, BMP-2 immobilised, Tfr2-ECD as analyte
BMP-2 [22] = test: SPR steady state analysis, BMP-2 immobilised, Tfr2-ECD as analyte [panel d]
BMP-2 [23] = test: BMP-2 competitive sandwich ELISA, BMP-2 constant at 1.5 ng/ml, blocked: BMP-2 capture and detection antibodies
BMP-2 [24] = test: Competition ELISA (BMP-2 sandwich ELISA), BMP-2 constant at 1,500 pg/ml, blocked: BMP-2 capture and detection antibodies
BMP-6 [25] = test: SPR (Biacore T100), Tfr2-ECD immobilised, BMP 50 nM as analyte
BMP-7 [26] = test: as above
BMP-2 [27] = test: as above
BMP-4 [28] = test: as above
BMP-2 [29] = test: BMP-2 competitive sandwich ELISA, 1.5 ng/ml BMP-2 with increasing Tfr2-ECD
BMP-6 [30] = test: SPR, BMP immobilised, Tfr2-ECD as analyte, 500 mM NaCl (FIG. 23c)
BMP-2 [31] = test: as above
BMP-4 [32] = test: as above

Measured: binding

B1: Tfr2 extracellular domain (Tfr2-ECD), murine, aa 103-798, recombinant His-tagged (receptor, not shown: large carriers)
chain: RGSCQACGDSVLVVDEDVNPEDSGRTTLYWSDLQAMFLRFLGEGRMEDTIRLTSLRERVAGSARMATLVQDILDKLSRQKLDHVWTDTHYVGLQFPDPAHANTLHWVDADGSVQEQLPLEDPEVYCPYSATGNATGKLVYAHYGRSEDLQDLKAKGVELAGSLLLVRVGITSFAQKVAVAQDFGAQGVLIYPDPSDFSQDPHKPGLSSHQAVYGHVHLGTGDPYTPGFPSFNQTQFPPVESSGLPSIPAQPISADIADQLLRKLTGPVAPQEWKGHLSGSPYRLGPGPDLRLVVNNHRVSTPISNIFACIEGFAEPDHYVVIGAQRDAWGPGAAKSAVGTAILLELVRTFSSMVSNGFRPRRSLLFISWDGGDFGSVGATEWLEGYLSVLHLKAVVYVSLDNSVLGDGKFHAKTSPLLVSLIENILKQVDSPNHSGQTLYEQVALTHPSWDAEVIQPLPMDSSAYSFTAFAGVPAVEFSFMEDDRVYPFLHTKEDTYENLHKMLRGRLPAVVQAVAQLAGQLLIRLSHDHLLPLDFGRYGDVVLRHIGNLNEFSGDLKERGLTLQWVYSARGDYIRAAEKLRKEIYSSERNDERLMRMYNVRIMRVEFYFLSQYVSPADSPFRHIFLGQGDHTLGALVDHLRMLRADGSGAASSRLTAGLGFQESRFRRQLALLTWTLQGAANALSGDVWNIDNNF
binds: all assays above
